Assay results published in PMC8350011, “Interactions between semaphorins and plexin–neuropilin receptor complexes in the membranes of live cells” (The Journal of Biological Chemistry, 2021).
These are yes or no findings as the source states them, for the method shown. Some results given as binding are weak or reduced against the parent protein; the word gives no strength.

By UniProt entry, the sequences of proteins in these tests, tags left out. Residues count along the entry.
UniProt Q9HCM2, residues 24-1894: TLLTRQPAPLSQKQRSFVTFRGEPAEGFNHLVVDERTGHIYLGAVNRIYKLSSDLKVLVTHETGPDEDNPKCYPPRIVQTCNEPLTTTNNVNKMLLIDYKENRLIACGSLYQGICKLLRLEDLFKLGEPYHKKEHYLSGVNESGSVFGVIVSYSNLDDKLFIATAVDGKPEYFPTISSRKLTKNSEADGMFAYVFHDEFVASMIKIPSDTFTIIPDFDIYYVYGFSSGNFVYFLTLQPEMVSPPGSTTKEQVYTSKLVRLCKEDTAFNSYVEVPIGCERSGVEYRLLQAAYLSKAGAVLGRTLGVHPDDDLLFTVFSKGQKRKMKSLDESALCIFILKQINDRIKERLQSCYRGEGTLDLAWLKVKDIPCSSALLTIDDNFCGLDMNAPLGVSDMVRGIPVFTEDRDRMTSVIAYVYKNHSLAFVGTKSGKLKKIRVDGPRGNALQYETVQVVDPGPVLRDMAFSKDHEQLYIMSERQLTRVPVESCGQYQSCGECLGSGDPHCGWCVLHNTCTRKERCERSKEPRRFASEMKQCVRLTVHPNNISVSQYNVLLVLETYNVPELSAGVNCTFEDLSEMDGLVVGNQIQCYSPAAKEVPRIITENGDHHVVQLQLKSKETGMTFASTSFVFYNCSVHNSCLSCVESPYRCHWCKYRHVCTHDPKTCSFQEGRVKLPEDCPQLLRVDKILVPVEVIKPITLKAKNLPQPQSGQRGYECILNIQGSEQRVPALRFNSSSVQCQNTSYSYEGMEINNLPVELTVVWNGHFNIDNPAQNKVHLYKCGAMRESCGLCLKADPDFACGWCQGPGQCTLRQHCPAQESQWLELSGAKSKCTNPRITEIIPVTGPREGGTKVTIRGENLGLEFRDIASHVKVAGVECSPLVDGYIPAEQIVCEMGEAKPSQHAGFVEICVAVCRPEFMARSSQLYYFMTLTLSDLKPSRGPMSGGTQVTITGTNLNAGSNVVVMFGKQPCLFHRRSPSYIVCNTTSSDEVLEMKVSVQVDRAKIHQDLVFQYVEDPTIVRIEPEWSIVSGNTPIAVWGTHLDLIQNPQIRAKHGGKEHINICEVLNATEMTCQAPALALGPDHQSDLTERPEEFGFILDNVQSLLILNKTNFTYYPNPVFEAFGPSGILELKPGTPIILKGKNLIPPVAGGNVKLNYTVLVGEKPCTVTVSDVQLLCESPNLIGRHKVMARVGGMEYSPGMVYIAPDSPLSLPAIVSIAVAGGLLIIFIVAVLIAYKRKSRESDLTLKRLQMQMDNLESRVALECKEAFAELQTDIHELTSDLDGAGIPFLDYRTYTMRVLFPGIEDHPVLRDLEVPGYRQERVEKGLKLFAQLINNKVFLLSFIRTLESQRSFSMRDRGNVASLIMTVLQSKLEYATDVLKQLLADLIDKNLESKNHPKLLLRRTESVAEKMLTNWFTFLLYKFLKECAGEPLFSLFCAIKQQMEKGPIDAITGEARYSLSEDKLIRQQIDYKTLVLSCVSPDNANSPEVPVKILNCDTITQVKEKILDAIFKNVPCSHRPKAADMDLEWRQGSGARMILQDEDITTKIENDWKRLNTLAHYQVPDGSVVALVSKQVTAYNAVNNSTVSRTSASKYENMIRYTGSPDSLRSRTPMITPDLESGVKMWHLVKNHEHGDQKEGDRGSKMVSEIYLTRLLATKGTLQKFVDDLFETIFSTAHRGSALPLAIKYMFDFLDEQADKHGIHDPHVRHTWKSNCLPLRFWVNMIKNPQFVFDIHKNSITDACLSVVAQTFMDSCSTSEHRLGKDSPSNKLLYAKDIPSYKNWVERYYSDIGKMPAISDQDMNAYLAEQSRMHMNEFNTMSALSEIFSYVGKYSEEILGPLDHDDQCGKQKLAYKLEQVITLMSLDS

Experiments:
plexin A4 [1] = biological target: T1, plexin A4 (human, UniProt Q9HCM2 24-1894); test: PIE-FCCS (pulsed-interleaved excitation fluorescence cross-correlation spectroscopy); single live Cos-7 cells co-expressing eGFP and mCherry fusions, with 500 ng/ml recombinant human semaphorin 3A in imaging media, data taken 10 to 70 min after addition
T1 construct: Two constructs (eGFP and mCherry fusions); The N1 vectors probably put the fluorescent protein at the C-terminus; also called plexin A4-eGFP; plexin A4-mCh; source: Cos-7, transiently transfected, in the membrane of live cells

plexin A4 [2] = biological target: T1, plexin A4; test: PIE-FCCS (pulsed-interleaved excitation fluorescence cross-correlation spectroscopy); single live Cos-7 cells co-expressing eGFP and mCherry fusions, with 500 ng/ml recombinant human semaphorin 3C in imaging media, data taken 10 to 70 min after addition
plexin A2 (human) [3] = biological target: plexin A2 (human) (UniProt O75051); test: PIE-FCCS (pulsed-interleaved excitation fluorescence cross-correlation spectroscopy); single live Cos-7 cells co-expressing eGFP and mCherry fusions, with 500 ng/ml recombinant human semaphorin 3A in imaging media, data taken 10 to 70 min after addition
plexin A2 (human) [4] = biological target: plexin A2 (human) (UniProt O75051); test: PIE-FCCS (pulsed-interleaved excitation fluorescence cross-correlation spectroscopy); single live Cos-7 cells co-expressing eGFP and mCherry fusions, with 500 ng/ml recombinant human semaphorin 3C in imaging media, data taken 10 to 70 min after addition

With “plexin A4 (from UniProt Q9HCM2 24-1894) (receptor)” as the molecule, how does the binding (plexin A4 [1]) read?
Its binding is “binds”.

What about the binding (plexin A4 [2]) of the same molecule?
The binding was “binds”.

B1: plexin A2 (receptor, human, UniProt O75051 35-1894, looked up)
chain: MPQFSTFHSENRDWTFNHLTVHQGTGAVYVGAINRVYKLTGNLTIQVAHKTGPEEDNKSCYPPLIVQPCSEVLTLTNNVNKLLIIDYSENRLLACGSLYQGVCKLLRLDDLFILVEPSHKKEHYLSSVNKTGTMYGVIVRSEGEDGKLFIGTAVDGKQDYFPTLSSRKLPRDPESSAMLDYELHSDFVSSLIKIPSDTLALVSHFDIFYIYGFASGGFVYFLTVQPETPEGVAINSAGDLFYTSRIVRLCKDDPKFHSYVSLPFGCTRAGVEYRLLQAAYLAKPGDSLAQAFNITSQDDVLFAIFSKGQKQYHHPPDDSALCAFPIRAINLQIKERLQSCYQGEGNLELNWLLGKDVQCTKAPVPIDDNFCGLDINQPLGGSTPVEGLTLYTTSRDRMTSVASYVYNGYSVVFVGTKSGKLKKIRADGPPHGGVQYEMVSVLKDGSPILRDMAFSIDQRYLYVMSERQVTRVPVESCEQYTTCGECLSSGDPHCGWCALHNMCSRRDKCQQAWEPNRFAASISQCVSLAVHPSSISVSEHSRLLSLVVSDAPDLSAGIACAFGNLTEVEGQVSGSQVICISPGPKDVPVIPLDQDWFGLELQLRSKETGKIFVSTEFKFYNCSAHQLCLSCVNSAFRCHWCKYRNLCTHDPTTCSFQEGRINISEDCPQLVPTEEILIPVGEVKPITLKARNLPQPQSGQRGYECVLNIQGAIHRVPALRFNSSSVQCQNSSYQYDGMDISNLAVDFAVVWNGNFIIDNPQDLKVHLYKCAAQRESCGLCLKADRKFECGWCSGERRCTLHQHCTSPSSPWLDWSSHNVKCSNPQITEILTVSGPPEGGTRVTIHGVNLGLDFSEIAHHVQVAGVPCTPLPGEYIIAEQIVCEMGHALVGTTSGPVRLCIGECKPEFMTKSHQQYTFVNPSVLSLNPIRGPESGGTMVTITGHYLGAGSSVAVYLGNQTCEFYGRSMSEIVCVSPPSSNGLGPVPVSVSVDRAHVDSNLQFEYIDDPRVQRIEPEWSIASGHTPLTITGFNLDVIQEPRIRVKFNGKESVNVCKVVNTTTLTCLAPSLTTDYRPGLDTVERPDEFGFVFNNVQSLLIYNDTKFIYYPNPTFELLSPTGVLDQKPGSPIILKGKNLCPPASGGAKLNYTVLIGETPCAVTVSETQLLCEPPNLTGQHKVMVHVGGMVFSPGSVSVISDSLLTLPAIVSIAAGGSLLLIIVIIVLIAYKRKSRENDLTLKRLQMQMDNLESRVALECKEAFAELQTDINELTSDLDRSGIPYLDYRTYAMRVLFPGIEDHPVLRELEVQGNGQQHVEKALKLFAQLINNKVFLLTFIRTLELQRSFSMRDRGNVASLIMTGLQGRLEYATDVLKQLLSDLIDKNLENKNHPKLLLRRTESVAEKMLTNWFAFLLHKFLKECAGEPLFMLYCAIKQQMEKGPIDAITGEARYSLSEDKLIRQQIEYKTLILNCVNPDNENSPEIPVKVLNCDTITQVKEKILDAVYKNVPYSQRPRAVDMDLEWRQGRIARVVLQDEDITTKIEGDWKRLNTLMHYQVSDRSVVALVPKQTSSYNIPASASISRTSISRYDSSFRYTGSPDSLRSRAPMITPDLESGVKVWHLVKNHDHGDQKEGDRGSKMVSEIYLTRLLATKGTLQKFVDDLFETLFSTVHRGSALPLAIKYMFDFLDEQADRHSIHDTDVRHTWKSNCLPLRFWVNVIKNPQFVFDIHKGSITDACLSVVAQTFMDSCSTSEHRLGKDSPSNKLLYAKDIPSYKSWVERYYADIAKLPAISDQDMNAYLAEQSRLHAVEFNMLSALNEIYSYVSKYSEELIGALEQDEQARRQRLAYKVEQLINAMSIES
notes: Two constructs (pEGFP-N1 and pmCh-N1, EcoR1 and Kpn1 sites); the N1 vectors probably put the fluorescent protein at the C-terminus; also called plexin A2-eGFP; plexin A2-mCh; source: Cos-7, transiently transfected, in the membrane of live cells
Which binding (plexin A2 (human) [3]) does the source give for B1 here?
The binding was “binds”.

What about the binding (plexin A4 [2]) of the same molecule?
Its binding is “binds”.

What about the binding (plexin A2 (human) [4]) of the same molecule?
The binding was “binds”.
